# Reference: article PMC5064014
# Chains of the proteins cited; added tags and fusions are not shown.
# UniProt Q8N5F7: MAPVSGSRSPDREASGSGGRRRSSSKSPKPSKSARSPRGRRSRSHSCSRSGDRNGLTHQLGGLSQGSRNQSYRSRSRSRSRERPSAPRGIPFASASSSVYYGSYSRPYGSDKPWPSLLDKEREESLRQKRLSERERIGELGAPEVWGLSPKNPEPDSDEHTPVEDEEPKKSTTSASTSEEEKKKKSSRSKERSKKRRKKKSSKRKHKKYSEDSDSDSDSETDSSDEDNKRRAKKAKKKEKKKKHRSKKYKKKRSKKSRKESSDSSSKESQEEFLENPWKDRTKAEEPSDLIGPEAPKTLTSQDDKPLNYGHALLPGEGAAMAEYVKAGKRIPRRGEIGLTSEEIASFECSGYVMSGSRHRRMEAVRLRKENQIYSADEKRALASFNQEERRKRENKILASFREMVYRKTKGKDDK
# UniProt O43684: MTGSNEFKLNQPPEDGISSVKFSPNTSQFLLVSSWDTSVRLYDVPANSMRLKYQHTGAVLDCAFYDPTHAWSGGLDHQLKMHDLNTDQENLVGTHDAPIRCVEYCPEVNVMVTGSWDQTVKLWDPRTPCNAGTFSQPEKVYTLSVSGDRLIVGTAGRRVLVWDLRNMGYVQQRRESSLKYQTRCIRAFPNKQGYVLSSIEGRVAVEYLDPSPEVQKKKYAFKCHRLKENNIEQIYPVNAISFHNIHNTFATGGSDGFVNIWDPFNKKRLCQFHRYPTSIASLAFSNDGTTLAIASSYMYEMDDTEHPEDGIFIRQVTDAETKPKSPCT
# UniProt O60566: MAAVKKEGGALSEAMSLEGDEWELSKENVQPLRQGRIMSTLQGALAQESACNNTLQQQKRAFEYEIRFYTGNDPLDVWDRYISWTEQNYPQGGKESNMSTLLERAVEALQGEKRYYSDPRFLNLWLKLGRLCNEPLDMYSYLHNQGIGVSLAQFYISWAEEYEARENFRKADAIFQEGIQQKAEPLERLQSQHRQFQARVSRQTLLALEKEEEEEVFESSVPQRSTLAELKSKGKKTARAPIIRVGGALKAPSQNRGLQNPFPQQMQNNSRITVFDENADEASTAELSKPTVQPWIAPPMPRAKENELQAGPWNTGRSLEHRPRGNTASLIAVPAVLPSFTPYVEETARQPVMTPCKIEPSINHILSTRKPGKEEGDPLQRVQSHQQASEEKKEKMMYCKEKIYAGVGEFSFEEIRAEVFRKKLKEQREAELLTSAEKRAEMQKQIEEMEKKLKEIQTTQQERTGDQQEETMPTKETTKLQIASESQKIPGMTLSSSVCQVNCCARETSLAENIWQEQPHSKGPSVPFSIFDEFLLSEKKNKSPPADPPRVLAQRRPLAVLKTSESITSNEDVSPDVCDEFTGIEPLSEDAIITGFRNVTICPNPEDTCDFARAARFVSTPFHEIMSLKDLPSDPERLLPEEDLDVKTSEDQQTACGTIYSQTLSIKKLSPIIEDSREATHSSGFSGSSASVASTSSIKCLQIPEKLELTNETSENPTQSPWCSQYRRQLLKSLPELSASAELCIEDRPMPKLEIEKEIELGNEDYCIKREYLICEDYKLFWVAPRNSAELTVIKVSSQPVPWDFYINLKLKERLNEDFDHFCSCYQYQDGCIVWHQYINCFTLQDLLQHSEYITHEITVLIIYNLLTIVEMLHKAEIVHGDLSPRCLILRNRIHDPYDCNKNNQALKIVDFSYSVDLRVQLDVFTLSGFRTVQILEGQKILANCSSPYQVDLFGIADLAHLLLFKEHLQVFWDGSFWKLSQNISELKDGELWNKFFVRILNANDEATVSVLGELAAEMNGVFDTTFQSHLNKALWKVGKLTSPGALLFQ
# No constants are given. Whether binding was seen depends on the method and setting. In cells and extracts the contact can be indirect. Some entries that bind do so weakly or less than the wild type.
# Assays:
# [1] = biological target: Flag-NKAP (wild type) (human) (UniProt Q8N5F7); experiment: co-IP; HeLa cells transfected with Flag vector, Flag-NKAP (WT) or Flag-NKAP (14KR), synchronised in mitosis/prometaphase (thymidine–nocodazole) or G1 (much less found in G1); TNE lysis buffer (50 mM Tris–HCl pH 8, 200 mM NaCl, 0.5% NP-40, 0.1 mM EDTA, 10 mM NEM); anti-Flag M2 beads; immunoblot of endogenous partners
# [2] = biological target: GST-NKAP (wild type) (human) (UniProt Q8N5F7); experiment: pull-down; bacterially expressed GST-NKAP used to pull down proteins from cell lysates; only the target purified
# [3] = biological target: Flag-NKAP (wild type) (human) (UniProt Q8N5F7); experiment: co-IP; His-Bub3 co-immunoprecipitated with Flag-NKAP (Supplementary Fig. 7g); cells not given
# [4] = biological target: GST-NKAP (wild type) (human) (UniProt Q8N5F7); experiment: pull-down; in vitro translated ^35S-labelled Flag-Bub3 incubated with GST or GST-NKAP; 50 mM Tris–HCl pH 7.5, 150 mM NaCl, 1 mM EDTA, 0.3 mM dithiothreitol, 0.1% NP-40; overnight at 4 °C; four washes; only the target purified
substance,measurement,setting,value
"Bub3 (endogenous, HeLa) (from UniProt O43684 1-328)",binding,[1],binds
Bub3 in cell lysates (GST-NKAP pull-down) (from UniProt O43684 1-328),binding,[2],binds
"BubR1 (endogenous, HeLa) (from UniProt O60566 1-1050)",binding,[1],binds
His-Bub3 (co-IP of Supplementary Fig. 7g) (from UniProt O43684 1-328),binding,[3],binds
^35S-labelled Flag-Bub3 (in vitro translated) (from UniProt O43684 1-328),binding,[4],binds
